# “And” between values parts separate entries of the source, which are not always exact repeats. Identical values can stand only once. Among all 320,000 compounds or so, about 22,000 (6.9%) were called active. The shares of active, inactive and inconclusive entries below differ from those in the screen. The call rests on the fitted dose curve; in most records, active means well fitted inhibition curve with a large enough effect; inconclusive means small, poorly fitted or top-dose-only effect, or another doubt; inactive means no such curve, though single readings can be large or run the other way. Where the call is inconclusive, the potency comes from a doubtful curve fit.
# Experiment: Primary qHTS for delayed death inhibitors of the malarial parasite plastid, 96 hour incubation
# Details: P. falciparum luciferase reporter growth; series mostly up to 28.7 µM
# In short: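 Two parasite generations (96 h, 37 C, 5% CO2) of compound exposure in infected erythrocytes (0.05% parasitemia, 2% hematocrit). Luciferase-reporter P. falciparum; decreased luminescence indicates inhibited growth, aimed at apicoplast-acting delayed death.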
# Potency means the concentration at half of the fitted maximal effect.
row,Compound,Potency
1,O=C(/C=C/c1ccccn1)c1ccc(Br)cc1O,"inconclusive: 18.5 µM [inhibitor, single point]"
2,COC(=O)CNC(=S)NC(=O)c1ccc(C(C)(C)C)cc1,"inconclusive: 2.08 µM [inhibitor, partial curve, poor fit]"
3,C#CCOCCOCCOCCNc1nc(N2CCN(C(=O)[C@H](Cc3cc4ccccc4[nH]3)n3cc([C@@H](N)CC(C)C)nn3)CC2)nc(N2CCN(C(=O)[C@H](Cc3cc4ccccc4[nH]3)n3cc([C@@H](N)CC(C)C)nn3)CC2)n1,active: 4.15 µM
4,COc1ccc(C(NC(=O)/C=C/c2ccco2)c2ccc(OC)c(OC)c2)cc1 (stereo unspecified),"inconclusive: 2.62 µM [inhibitor, single point]"
5,COc1ccc(NC(=O)C2CCN(c3nc(C)nc4c3CCC4)CC2)cc1,inactive
6,C/C(NCCN1CCOCC1)=C(\C#N)C(N)=O,active: 1.65 µM
7,CCOc1ccc(NC(=O)C2CCCN(S(=O)(=O)c3c(C)nn(C)c3C)C2)cc1 (stereo unspecified),"inconclusive: 7.38 µM [inhibitor, partial curve]"
8,CN(CC(=O)N1CCN(c2cccc(Cl)c2)CC1)S(=O)(=O)c1cnc[nH]1,"inconclusive: 10.4 µM [inhibitor, single point]"
9,C/C=C/C=N/NC(=O)c1ccncc1,"inconclusive: 6.75 µM [inhibitor, partial curve, poor fit]"
10,CCC(=O)NNc1ncnc2ccccc12,inactive
11,Cc1ccc(S(=O)(=O)N(C(=O)c2ccncc2)c2ccc(OC(=O)c3ccncc3)c3ccccc23)c(C)c1,active: 9.28 µM
12,CSc1nsc(/C=C/Nc2ccc(F)cc2)c1C#N,active: 6.57 µM
13,CN(C)CC/C=C1\c2ccccc2CSc2ccccc21,"inconclusive: 6.42 µM [inhibitor, partial curve] and inconclusive: 2.62 µM [inhibitor, partial curve, poor fit]"
14,Cc1nnc(NC(=O)c2ccc(Br)o2)s1,"inconclusive: 18.5 µM [inhibitor, single point]"
15,COc1ccc(CN2CCn3nc(C(=O)NC4CC4)cc3C2=O)cc1,"inconclusive: 0.0657 µM [inhibitor, full curve, poor fit]"
16,Cc1cc(C)c2c(c1)/C(=c1/sc3n(c1=O)CN(c1ccccc1)CN=3)C(=O)N2,inactive
17,COc1ccc(CNC(=O)c2[nH]c(C)c(C(C)=O)c2C)cc1,"inconclusive: 10.4 µM [inhibitor, single point]"
18,Cc1ccc2c(c1)S/C(=C/c1ccc[n+](CCO)c1)N2C,inactive
19,CCCCn1c(O)c(C(C)=Nc2ccc(OCC)cc2)c(=O)[nH]c1=O,"inconclusive: 18.5 µM [inhibitor, single point]"
20,C=C(C)CC(Nc1ccc(OC)cc1)c1ccco1 (stereo unspecified),inactive
21,CCN1CCN(CCCNC(=O)c2ccc(NC(=O)C3=C(C)OCCS3)cc2)CC1,"inconclusive: 18.5 µM [inhibitor, partial curve, poor fit]"
22,OC1(c2ccccc2)CCNC2CCCCC21 (stereo unspecified),active: 10.4 µM
23,COC(=O)c1sccc1NC(=S)N1CCN(c2ccc(F)cc2)CC1,"inconclusive: 11.7 µM [inhibitor, partial curve, poor fit]"
24,Cc1cc2ccccc2n1CCNC(=O)C1CC1,"inconclusive: 2.94 µM [inhibitor, full curve, poor fit]"

row,Compound,Potency
1,CC1=C(C(=O)Nc2cc(C)ccn2)C(c2cnn(C)c2)C2=C(CC(c3ccccc3)CC2=O)N1 (stereo unspecified),"inconclusive: 18.5 µM [inhibitor, single point]"
2,CC(/C=C/c1ccc2c(c1)OCO2)=N/NC(=O)C1COc2ccccc2O1 (stereo unspecified),inactive
3,Cc1cc(-c2nnc3n2CCCCC3)c(C)n1-c1ccccc1,"inconclusive: 13.1 µM [inhibitor, single point]"
4,Cc1c(Nc2c3ccccc3nc3ccccc23)c(=O)n(-c2ccccc2)n1C,"inconclusive: 8.28 µM [inhibitor, partial curve, poor fit]"
5,COc1cccc(/C=N\NC(=O)c2cc(OCC(F)(F)F)ccc2OCC(F)(F)F)c1,"inconclusive: 0.0026 µM [inhibitor, full curve]"
6,O=C(N/N=C/c1cccc(O)c1)c1cc(-c2ccc3c(c2)OCO3)n[nH]1,inactive
7,COc1ccc(CC(=O)N/N=C(\C)c2cccc(NC(=O)C3CC3)c2)cc1,"inconclusive: 4.65 µM [inhibitor, partial curve]"
8,Cc1cc(C)nc(-n2nc(C)c3c(C)c(C)c(C)nc32)n1,"inconclusive: 13.1 µM [inhibitor, single point]"
9,COc1ccccc1CNC(=O)COc1ccc2c(c1)CCC2,"inconclusive: 11.7 µM [inhibitor, single point]"
10,Cn1c(SCc2nnc(-c3ccc(F)cc3)o2)nnc1C1COc2ccccc2O1 (stereo unspecified),"inconclusive: 0.0657 µM [inhibitor, full curve, poor fit]"
11,O=C(Nc1nc2nccc(-c3ccccc3)n2n1)c1ccc(F)cc1,inactive
12,Cc1ccccc1OCCC(=O)Nc1ccc2c(C)cc(=O)oc2c1,inactive
13,O=C(c1ccccc1)N1CCN(CC(O)COc2ccc(Br)cc2)CC1 (stereo unspecified),active: 9.28 µM
14,N#CCCN(C(=O)COC(=O)C1CCN(c2ccc(C(F)(F)F)cn2)CC1)c1ccc(F)cc1,inactive
15,O=C(CSc1nnc(NC(=O)C2CC(=O)N(c3ccc(F)cc3)C2)s1)NC1CCCC1 (stereo unspecified),"inconclusive: 11.7 µM [inhibitor, partial curve]"
16,COc1ccc(-c2nc3c4ccccc4[nH]c(=O)n3n2)cc1,"inconclusive: 13.1 µM [inhibitor, single point]"
17,Clc1ccc(-c2csc(NNC3=NCCCCC3)n2)cc1,"inconclusive: 0.0738 µM [inhibitor, full curve, poor fit]"
18,O=C(CNC(=O)C(c1ccccc1)c1ccccc1)N/N=C/c1ccc(O)cc1O,"inconclusive: 18.5 µM [inhibitor, single point]"
19,Cc1ccc(S(=O)(=O)NC(CCc2ccccc2)CC(=O)C(C)(C)C)cc1 (stereo unspecified),"inconclusive: 18.5 µM [inhibitor, partial curve, poor fit]"
20,Cc1ccc(OCc2cc(C(=O)Nc3ccccc3)oc2C)cc1,inactive
21,CC1(C)C(=O)Nc2ccccc2N1C(=O)COC(=O)CSc1ccc(Cl)cc1,inactive
22,Cc1c(Cl)cccc1-n1c(SCC(=O)NCc2ccccc2Cl)nnc1-c1ccncc1,active: 8.28 µM
23,COc1ccc(-c2nnnn2C)cc1S(=O)(=O)Nc1ccc(C)cc1C,"inconclusive: 3.7 µM [inhibitor, single point]"
24,O=C(CSc1cccc[n+]1[O-])c1ccc(-c2ccccc2)cc1,active: 8.28 µM

row,Compound,Potency
1,CC(Sc1nnc(CNC(=O)c2ccccc2F)n1C)C(=O)Nc1nccs1 (stereo unspecified),inactive
2,Cc1cccc(NC(=O)C2CCCN(C(=O)Nc3ccccc3)C2)c1C (stereo unspecified),"inconclusive: 5.22 µM [inhibitor, partial curve, poor fit]"
3,CC(C)CNC(=O)COC(=O)c1ccc2c(c1)C(=O)N(Cc1ccco1)C2=O,inactive
4,O=C(Nc1ccc(Cl)cc1)c1cc2nc(-c3ccco3)cc(C(F)(F)F)n2n1,inactive
5,CN(C)c1ccc(C(=S)N2CCCC2)cc1Br,"inconclusive: 0.465 µM [inhibitor, partial curve, poor fit]"
6,Brc1ccc(-c2c[n+]3c(n2-c2ccccc2)SCC3)cc1,"inconclusive: 0.0828 µM [inhibitor, full curve]"
7,CCc1ccc(NC(=O)CCc2c(C)nn(-c3ccc(N4CCCCC4)nn3)c2C)cc1,inactive
8,Cc1ccc(S(=O)(=O)N2CCOCC2)cc1C(=O)NCCCn1ccnc1,"inconclusive: 7.38 µM [inhibitor, partial curve, poor fit]"
9,O=C(CCCc1nc2ccccc2s1)NC(c1ccccc1)c1ccccc1,"inconclusive: 11.7 µM [inhibitor, single point]"
10,COc1ccccc1C1CC(=O)Nc2cc3c(cc21)OCCO3 (stereo unspecified),inactive
11,O=C(CCS(=O)(=O)c1cccc2nsnc12)N1CCN(Cc2ccc3c(c2)OCO3)CC1,"inconclusive: 8.28 µM [inhibitor, partial curve, poor fit]"
12,COc1ccccc1-c1nnc(C2CCN(S(=O)(=O)c3ccc([N+](=O)[O-])cc3)CC2)o1,"inconclusive: 14.7 µM [inhibitor, single point]"
13,O=S(=O)(c1ccc(F)cc1)N1CCCC1,"inconclusive: 18.5 µM [inhibitor, partial curve, poor fit]"
14,CCOc1ccccc1/C=N/OCC(=O)NCc1ccc(F)cc1,inactive
15,CC1=C(C(=O)OC2CCCCC2)C(c2ccc(F)cc2)NC(=O)N1 (stereo unspecified),active: 9.28 µM
16,O=C(Nc1ccc(O)cc1)c1ccc(NC(=O)c2ccco2)cc1,inactive
17,CCOC(=O)N1CCC(N2Cc3cccc(C(=O)NCc4ccc5c(c4)OCO5)c3C2=O)CC1,"inconclusive: 2.08 µM [inhibitor, full curve]"
18,COc1ccc2[nH]c(=O)c(CN(C(C)=O)c3ccc(C)c(C)c3)cc2c1,"inconclusive: 18.5 µM [inhibitor, single point]"
19,CCOC(=O)C1CCN(S(=O)(=O)CCNC(=O)c2cccc(OC)c2)CC1,inactive
20,COc1ccccc1NC(=O)CCc1nnc2ccc(N3CCCCC3)nn12,active: 4.15 µM
21,COc1ccc(N2CSC3=C(C#N)C(c4cc(OC)ccc4OC)CC(=O)N3C2)c(OC)c1 (stereo unspecified),active: 13.1 µM
22,O=C1NC(c2ccccn2)Nc2sc3c(c21)CCC3 (stereo unspecified),inactive
23,Nc1ccc(Br)cc1Br,"inconclusive: 0.329 µM [inhibitor, full curve, poor fit]"

# Reference: PubChem BioAssay AID504834 (National Center for Advancing Translational Sciences (NCATS), 2011)
